According to article PMC2973837:

Molecular target: T1, HA-SRFR1 (SUPPRESSOR OF rps4-RLD1, HA-tagged, genomic clone) (Arabidopsis thaliana) (UniProt F4JS25)
T1 sequence: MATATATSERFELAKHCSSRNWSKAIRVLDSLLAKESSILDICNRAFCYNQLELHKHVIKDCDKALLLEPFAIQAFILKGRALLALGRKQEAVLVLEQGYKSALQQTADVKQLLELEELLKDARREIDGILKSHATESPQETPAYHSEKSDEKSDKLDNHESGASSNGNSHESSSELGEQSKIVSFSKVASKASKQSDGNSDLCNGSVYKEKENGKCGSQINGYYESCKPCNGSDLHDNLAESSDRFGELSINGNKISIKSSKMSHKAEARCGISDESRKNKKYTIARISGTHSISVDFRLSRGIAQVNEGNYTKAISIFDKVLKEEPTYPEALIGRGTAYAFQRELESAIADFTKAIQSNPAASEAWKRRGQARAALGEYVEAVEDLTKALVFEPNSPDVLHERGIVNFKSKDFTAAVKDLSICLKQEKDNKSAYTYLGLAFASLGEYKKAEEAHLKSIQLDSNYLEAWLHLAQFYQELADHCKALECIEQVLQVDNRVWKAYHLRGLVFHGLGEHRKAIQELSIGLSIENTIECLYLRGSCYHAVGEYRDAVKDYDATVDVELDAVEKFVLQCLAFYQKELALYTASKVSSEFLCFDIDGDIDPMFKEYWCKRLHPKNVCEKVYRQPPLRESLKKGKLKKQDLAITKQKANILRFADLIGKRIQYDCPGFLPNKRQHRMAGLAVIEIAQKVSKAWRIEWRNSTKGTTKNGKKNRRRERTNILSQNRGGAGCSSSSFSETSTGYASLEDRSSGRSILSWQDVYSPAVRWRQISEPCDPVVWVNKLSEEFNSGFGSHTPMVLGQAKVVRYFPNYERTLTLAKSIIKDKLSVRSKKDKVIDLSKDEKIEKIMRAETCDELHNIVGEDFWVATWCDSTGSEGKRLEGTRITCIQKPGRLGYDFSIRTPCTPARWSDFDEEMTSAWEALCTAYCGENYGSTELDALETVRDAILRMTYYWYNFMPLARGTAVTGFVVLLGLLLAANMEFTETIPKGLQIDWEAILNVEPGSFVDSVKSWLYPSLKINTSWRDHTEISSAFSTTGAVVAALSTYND
Experiment: co-IP; soluble fraction (100,000 x g supernatant) of HA-SRFR1 transgenic N. benthamiana leaves 48 h after agroinfiltration of the Myc-tagged proteins; 0.2% Igepal CA-630; overnight with anti-HA or anti-Myc agarose beads; immunoblot

- binding: no binding
Substance: GAPDH (enzyme)

These are yes or no findings as the source states them, for the method shown. Binding seen in cells or lysates may run through a third protein. Sequences can lack the tags named with a protein.
